Measurements from PMC8081377 (Mutagenesis, 2021).

Test system: EpiDerm™ EPI-200-MNA skin tissues

COC(=O)C1=C(C)NC(C)=C(C(=O)OC)C1c1ccccc1[N+](=O)[O-] [Nifedipine]
top dose, limited by precipitation on the surface of the skin tissues: 51 µg/cm^2
